Source: publication PMC4126692
No constants are given. Whether binding was seen depends on the method and setting. In cells and extracts the contact can be indirect. Some results given as binding are weak or reduced against the parent protein; the word gives no strength.

Chains of the proteins cited; added tags and fusions are not shown.
UniProt Q08775: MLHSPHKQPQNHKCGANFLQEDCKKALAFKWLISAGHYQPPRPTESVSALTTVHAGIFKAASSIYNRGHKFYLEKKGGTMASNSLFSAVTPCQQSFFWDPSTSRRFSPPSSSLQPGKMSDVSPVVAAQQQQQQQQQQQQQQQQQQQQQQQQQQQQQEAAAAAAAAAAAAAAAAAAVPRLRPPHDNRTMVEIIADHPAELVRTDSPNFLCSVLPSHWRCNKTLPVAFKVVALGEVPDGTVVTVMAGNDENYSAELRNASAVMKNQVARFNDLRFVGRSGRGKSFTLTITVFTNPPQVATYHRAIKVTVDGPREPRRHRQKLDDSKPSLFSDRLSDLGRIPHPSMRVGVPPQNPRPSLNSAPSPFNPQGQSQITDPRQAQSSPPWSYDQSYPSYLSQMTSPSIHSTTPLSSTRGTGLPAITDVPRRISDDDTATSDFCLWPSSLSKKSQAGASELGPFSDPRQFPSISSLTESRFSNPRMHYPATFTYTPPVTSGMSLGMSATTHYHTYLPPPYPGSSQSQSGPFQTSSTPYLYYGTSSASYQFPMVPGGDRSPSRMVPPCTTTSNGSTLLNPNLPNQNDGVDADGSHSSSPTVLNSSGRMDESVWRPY

Target: T1, CCAAT/enhancer binding protein β (C/EBPβ), as precipitated by the C/EBPβ antibody, isoforms not told apart (UniProt P21272)
T1 sequence: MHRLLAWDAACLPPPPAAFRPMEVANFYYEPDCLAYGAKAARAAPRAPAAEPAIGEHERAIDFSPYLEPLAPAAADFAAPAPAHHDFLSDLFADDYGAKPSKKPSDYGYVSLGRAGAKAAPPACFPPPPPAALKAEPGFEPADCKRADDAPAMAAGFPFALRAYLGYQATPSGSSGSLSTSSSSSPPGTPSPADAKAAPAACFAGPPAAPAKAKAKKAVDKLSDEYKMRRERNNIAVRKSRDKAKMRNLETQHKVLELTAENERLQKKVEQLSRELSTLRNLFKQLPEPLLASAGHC
Assay: co-IP; nuclear extract of C/EBPβ-transfected ATDC5 cells incubated for 10 minutes with magnetic beads conjugated with C/EBPβ, RUNX2 or normal rabbit IgG antibody; immunoblotting with C/EBPβ or RUNX2 antibody

## runt-related transcription factor-2 (RUNX2) (from UniProt Q08775 1-607)
  binding: binds
